According to patent US20240425478A1, “CYCLOPENTYLPYRAZOLE CDK2 INHIBITORS” (Genentech, Inc., priority 2021, published 2024):
Some results were stated once for a whole list of compounds, not compound by compound.

The chains behind the UniProt entries cited, without tags or fusion partners. Where a name states a change or a piece, a line headed by the entry shows the natural chain unless it says otherwise.
UniProt P06493, whole entry: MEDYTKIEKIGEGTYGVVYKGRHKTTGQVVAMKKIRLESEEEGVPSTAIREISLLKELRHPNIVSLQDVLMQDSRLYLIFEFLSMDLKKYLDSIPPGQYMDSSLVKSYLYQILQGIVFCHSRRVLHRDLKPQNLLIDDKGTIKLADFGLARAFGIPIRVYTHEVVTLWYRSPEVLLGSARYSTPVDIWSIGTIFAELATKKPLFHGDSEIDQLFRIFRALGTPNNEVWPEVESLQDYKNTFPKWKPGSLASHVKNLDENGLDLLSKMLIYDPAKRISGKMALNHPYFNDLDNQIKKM
UniProt P11802: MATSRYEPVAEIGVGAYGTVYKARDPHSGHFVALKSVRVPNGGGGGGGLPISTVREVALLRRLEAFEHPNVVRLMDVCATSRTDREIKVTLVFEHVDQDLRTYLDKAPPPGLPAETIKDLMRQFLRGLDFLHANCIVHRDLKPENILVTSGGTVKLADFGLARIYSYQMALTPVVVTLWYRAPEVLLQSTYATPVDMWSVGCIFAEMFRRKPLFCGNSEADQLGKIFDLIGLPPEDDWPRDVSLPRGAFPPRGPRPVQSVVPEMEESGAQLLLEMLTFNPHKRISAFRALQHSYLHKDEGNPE

Columns and labels:
[1] = target: T1, Cyclin Dependent Kinase 1/Cyclin A2 (CDK1-cycA2) (Homo sapiens, UniProt P06493); assay: CDK1-cycA2 TR-FRET (Lance) enzyme assay; format: biochemical
T1 construct: purchased ProQinase 0134-0054-1
Description: (§1) Cyclin Dependent Kinase 1/Cyclin A2 (CDK1-cycA2), Cyclin Dependent Kinase 2/Cyclin E1 (CDK2-cycE1), Cyclin Dependent Kinase 4/Cyclin D3 (CDK4-cycD3) and Cyclin Dependent Kinase 6/Cyclin D3 (CDK6-cycD3) enzyme assays were carried out as described below.
(1) CDK1-cycA2 TR-FRET (Lance®)
(§2) An Echo acoustic dispenser is used to create dose responses of compound dissolved in DMSO into a 384-well microplate. A 5 μL volume of enzyme mix is added to the well, and pre-incubated with compound for 30 minutes. […] Buffer conditions are 50 mM HEPES, pH 7.5, 10 mM MgCl2, 2 mM TCEP, 0.05% BGG and 0.01% Brij 35. The reaction is quenched with 5 μL of EDTA in detection buffer (15 mM [EDTA final]). Finally, a 5 μL TR-FRET detection mix is added to the quenched reaction, which includes Europium labeled anti-phospho-4E-BP1. […] Signal is a ratio of the Acceptor and Donor fluorescence. Inhibition constants are calculated via the Morrison equation.

[2] = target: T2, Cyclin Dependent Kinase 4/Cyclin D3 (CDK4-cycD3) (Homo sapiens, UniProt P11802); assay: CDK4-cycD3 TR-FRET (LANCE) enzyme assay; format: biochemical
T2 construct: purchased Carna Biosciences 04-105
Description: as §1
(iii) CDK4-cycD3 TR-FRET (LANCE®)
as §2

SMILES | fold selectivity for CDK2 over CDK1 (enzymatic data) [1] | fold selectivity for CDK2 over CDK4 (enzymatic data) [2]
Cn1cc(Nc2cc([C@H]3CC[C@@H](OC(=O)NC(C)(C)C)C3)[nH]n2)ccc1=O [Example 1, (1R,3S)-3-(3-((1-methyl-6-oxo-1,6-dihydropyridin-3-yl)amino)-1H-pyrazol-5-yl)cyclopentyl tert-butylcarbamate] | ≥ 30 fold | 
Cc1ncccc1Nc1cc([C@H]2CC[C@@H](OC(=O)NC(C)(C)C)C2)[nH]n1 [Example 4, (1R,3S)-3-(3-((2-methylpyridin-3-yl)amino)-1H-pyrazol-5-yl)cyclopentyl tert-butylcarbamate] | ≥ 30 fold | > 100 fold
Cc1ccncc1Nc1cc([C@H]2CC[C@@H](OC(=O)NC(C)(C)C)C2)[nH]n1 [Example 4A, (1R,3S)-3-(3-((4-methylpyridin-3-yl)amino)-1H-pyrazol-5-yl)cyclopentyl tert-butylcarbamate] | ≥ 30 fold | 
Cc1ccc(Nc2cc([C@H]3CC[C@@H](OC(=O)NC(C)(C)C)C3)[nH]n2)cn1 [Example 4B, (1R,3S)-3-(3-((6-methylpyridin-3-yl)amino)-1H-pyrazol-5-yl)cyclopentyl tert-butylcarbamate] | ≥ 30 fold | 
Cc1cc(Nc2cc([C@H]3CC[C@@H](OC(=O)NC(C)(C)C)C3)[nH]n2)nn(C)c1=O [Example 4D, (1R,3S)-3-(3-((1,5-dimethyl-6-oxo-1,6-dihydropyridazin-3-yl)amino)-1H-pyrazol-5-yl)cyclopentyl tert-butylcarbamate] | ≥ 30 fold | 
CC(C)(C)NC(=O)O[C@@H]1CC[C@H](c2cc(Nc3ccncc3)n[nH]2)C1 [Example 4H, (1R,3S)-3-(3-(pyridin-4-ylamino)-1H-pyrazol-5-yl)cyclopentyl tert-butylcarbamate] | ≥ 30 fold | 
CC(C)(C)NC(=O)O[C@@H]1CC[C@H](c2cc(Nc3ccnnc3)n[nH]2)C1 [Example 4K, (1R,3S)-3-(3-(pyridazin-4-ylamino)-1H-pyrazol-5-yl)cyclopentyl tert-butylcarbamate] | ≥ 30 fold | > 100 fold
Cn1nc(Nc2cc([C@H]3CC[C@@H](OC(=O)NC45CC(C4)C5)C3)[nH]n2)ccc1=O [Example 6, (1R,3S)-3-(5-((1-methyl-6-oxo-1,6-dihydropyridazin-3-yl)amino)-1H-pyrazol-3-yl)cyclopentyl bicyclo[1.1.1]pentan-1-ylcarbamate] | ≥ 30 fold | 
Cn1nc(Nc2cc([C@H]3CC[C@@H](OC(=O)NC(C)(C)C)C3)[nH]n2)ccc1=O [Example 6C, (1R,3S)-3-(3-((1-methyl-6-oxo-1,6-dihydropyridazin-3-yl)amino)-1H-pyrazol-5-yl)cyclopentyl tert-butylcarbamate] | ≥ 30 fold | 
Cc1nc(C(=O)N(C)C)ccc1Nc1cc([C@H]2CC[C@@H](OC(=O)NC3(C)CC3)C2)[nH]n1 [Example 7, (1R,3S)-3-(3-((6-(dimethylcarbamoyl)-2-methylpyridin-3-yl)amino)-1H-pyrazol-5-yl)cyclopentyl (1-methylcyclopropyl)carbamate] | ≥ 30 fold | 
